In PMC4884984, “Identification of approved and investigational drugs that inhibit hypoxia-inducible factor-1 signaling” (Oncotarget, 2016):
No dose or concentration is given here for some results.

Columns and labels:
ME-180 cells = experiment: Cancer cell proliferation assay, ME-180; assay type: cell-based, human; details: Table S8; ratio
HCT116 cells = experiment: Cancer cell proliferation assay, HCT116; assay type: cell-based, human; details: Table S8; ratio

SMILES | HIF-1α–NanoLuc Activity/ME-180 3-Day Viability (ME-180 cells) | HIF-1α–NanoLuc Activity/HCT116 3-Day Viability (HCT116 cells)
O=c1cc(N2CCOCC2)oc2c(-c3ccccc3)cccc12 [LY-294002] | 0.9 | –
C[C@H]1O[C@@H](O[C@H]2CC[C@@]3(C)[C@H](CC[C@@H]4[C@@H]3C[C@@H](O)[C@]3(C)[C@@H](C5=CC(=O)OC5)CC[C@]43O)C2)C[C@H](O)[C@@H]1O[C@H]1C[C@H](O)[C@H](O[C@H]2C[C@H](O)[C@H](O[C@@H]3O[C@H](CO)[C@@H](O)[C@H](O)[C@H]3O)[C@@H](C)O2)[C@@H](C)O1 [Deslanoside] | 12 | 0.2
COc1c(C)c2c(c(O)c1C/C=C(\C)CCC(=O)OCCN1CCOCC1)C(=O)OC2 [Mycophenolate mofetil] | 0.9 | –
CC[C@@]1(O)C(=O)OCc2c1cc1n(c2=O)Cc2cc3ccccc3nc2-1 [Camptothecin] | 14 | 1.5
C[C@@H]1O[C@@H](O[C@@H]2C=C3CC[C@@H]4[C@H](CC[C@]5(C)[C@@H](c6ccc(=O)oc6)CC[C@]45O)[C@@]3(C)CC2)[C@H](O)[C@H](O)[C@H]1O [Proscillaridin A] | 0.5 | 0.1
C[C@H]1O[C@@H](O[C@H]2[C@@H](O)C[C@H](O[C@H]3[C@@H](O)C[C@H](O[C@H]4CC[C@@]5(C)[C@H](CC[C@@H]6[C@@H]5CC[C@]5(C)[C@@H](C7=CC(=O)OC7)CC[C@]65O)C4)O[C@@H]3C)O[C@@H]2C)C[C@H](O)[C@@H]1O [Digitoxin] | 1.2 | 0.05
Cn1cnc2c(F)c(Nc3ccc(Br)cc3Cl)c(C(=O)NOCCO)cc21 [Selumetinib] | 5.5 | 0.07
CC[C@@]1(O)C(=O)OCc2c1cc1n(c2=O)Cc2cc3c(CN(C)C)c(O)ccc3nc2-1 [Topotecan] | 21 | 0.5
CC(=O)Nc1cccc(-n2c(=O)n(C3CC3)c(=O)c3c(Nc4ccc(I)cc4F)n(C)c(=O)c(C)c32)c1 [Trametinib] | 50 | 5
CCN(CC)CCNC(=O)c1c(C)[nH]c(/C=C2\C(=O)Nc3ccc(F)cc32)c1C [Sunitinib] | 0.6 | –
O=C(NOCC1CC1)c1ccc(F)c(F)c1Nc1ccc(I)cc1Cl [PD 184352] | – | 1.0
O=C1c2c(O)ccc(O)c2C(=O)c2c(NCCNCCO)ccc(NCCNCCO)c21 [Mitoxantrone] | 69 | 0.7
Oc1cccc(-c2nc(N3CCOCC3)c3oc4ncccc4c3n2)c1 [PI-103] | 2.5 | –
Nc1ncn([C@@H]2O[C@H](CO)[C@@H](O)[C@H]2O)c(=O)n1 [5-Azacitidine] | 0.08 | 0.1
C[C@@H]1O[C@@H](O[C@H]2C[C@@H](O)[C@]3(CO)[C@H]4[C@H](O)C[C@]5(C)[C@@H](C6=CC(=O)OC6)CC[C@]5(O)[C@@H]4CC[C@]3(O)C2)[C@H](O)[C@H](O)[C@H]1O [Ouabain] | 1.1 | 0.2
COC[C@H]1OC(=O)c2coc3c2[C@@]1(C)C1=C(C3=O)[C@@H]2CCC(=O)[C@@]2(C)C[C@H]1OC(C)=O [Wortmannin] | 0.1 | –
O=C(Nc1ccc([N+](=O)[O-])cc1Cl)c1cc(Cl)ccc1O [Niclosamide] | – | 1.0
CCCS(=O)(=O)Nc1ccc(F)c(C(=O)c2c[nH]c3ncc(-c4ccc(Cl)cc4)cc23)c1F [Vemurafenib] | 0.9 | 0.4
